Measured values as given in ChEMBL document CHEMBL1149382 (J Med Chem, 2006).

Test system: Trypanosoma cruzi
Experiment: Antiprotozoal activity against Trypanosoma cruzi epimastigotes
Assay type: functional, organism-based

With `CCCCc1oc2ccccc2c1C(=O)c1cc(I)c(OCCN(CC)CC)c(I)c1` [AMIODARONE] the IC50 was 9 µM.
